The experiment deals with NKG2A抗原(NKG2A蛋白胞外段) (human) (UniProt P26715). The experiment is described as follows: ELISA on coated NKG2A antigen, three-fold dilutions from 50 μg/mL, Goat Anti Human IgG-HRP. (In general: In an ELISA, binding on a coated surface is turned into a signal by an enzyme label.)

Sequences of proteins named here, by UniProt entry; tags and fusion partners are left off. Residues count along the entry.
UniProt P26715, residues 94-233: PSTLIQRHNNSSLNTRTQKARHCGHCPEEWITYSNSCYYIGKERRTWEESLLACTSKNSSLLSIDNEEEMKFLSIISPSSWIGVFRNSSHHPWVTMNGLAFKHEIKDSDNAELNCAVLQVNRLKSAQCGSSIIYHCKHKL

Our source for the binding values is patent CN116178551A.

Results are given in words; binding and its absence hold for the method and conditions named. Some results given as binding are weak or reduced against the parent protein; the word gives no strength. Where a sequence is shown, tags or fusion partners need not be part of it.

B1: 人源化全抗分子HA-1-IgG1 (humanized antibody HA-1) (antibody, V domains shown, not shown: a dimerising Fc or GST)
VH: EVQLVESGGGLVKPGGSLRLSCAASGFTFSDYDMSWVRQAPGKGLEWVSTISSGGSYTYYPDSVKGRFTISRDNAKNSLYLQMNSLRAEDTAVYYCTSPRQVGLRKAFDYWGQGTTVTVSS
VL: DVVMTQSPAFLSVTPGEKVTITCSASSSVSYMYWYQQKPDQAPKLLIKLTSNLASGVPSRFSGSGSGTDFTFTISSLEAEDAATYYCQQWSSNPFTFGQGTKLEIKR
As to B1, the binding result was “binds”.

B2: 人源化全抗分子HA-2-IgG1 (humanized antibody HA-2) (antibody, V domains shown, not shown: a dimerising Fc or GST)
VH: EVQLVESGGGLVKPGGSLRLSCAASGFAFSDYDMSWVRQAPGKGLEWVATISSGGSYTYYPDSVKGRFTISRDNAKNSLYLQMNSLRAEDTAVYYCTSPRQVGLRKAFDYWGQGTTVTVSS
VL: DIVVTQSPAFLSVTPGEKVTITCSASSSVSYMYWYQQKPDQAPKLLIKLTSNLASGVPSRFSGSGSGTDFTFTISSLEAEDAATYYCQQWSSNPFTFGQGTKLEIKR
With B2, the binding result was “binds”.
